Results: publication doi:10.1101/695700
Positions count from the first letter of the chain named. No constants are given. Whether binding was seen depends on the method and setting. For some assays here: Binding calls can cover weak binding; strength is not graded here.

Tests used:
[1] = target: T1, rHC1 D298A (MIDAS site mutant) (human) (UniProt P19827); experiment: SPR
T1 sequence: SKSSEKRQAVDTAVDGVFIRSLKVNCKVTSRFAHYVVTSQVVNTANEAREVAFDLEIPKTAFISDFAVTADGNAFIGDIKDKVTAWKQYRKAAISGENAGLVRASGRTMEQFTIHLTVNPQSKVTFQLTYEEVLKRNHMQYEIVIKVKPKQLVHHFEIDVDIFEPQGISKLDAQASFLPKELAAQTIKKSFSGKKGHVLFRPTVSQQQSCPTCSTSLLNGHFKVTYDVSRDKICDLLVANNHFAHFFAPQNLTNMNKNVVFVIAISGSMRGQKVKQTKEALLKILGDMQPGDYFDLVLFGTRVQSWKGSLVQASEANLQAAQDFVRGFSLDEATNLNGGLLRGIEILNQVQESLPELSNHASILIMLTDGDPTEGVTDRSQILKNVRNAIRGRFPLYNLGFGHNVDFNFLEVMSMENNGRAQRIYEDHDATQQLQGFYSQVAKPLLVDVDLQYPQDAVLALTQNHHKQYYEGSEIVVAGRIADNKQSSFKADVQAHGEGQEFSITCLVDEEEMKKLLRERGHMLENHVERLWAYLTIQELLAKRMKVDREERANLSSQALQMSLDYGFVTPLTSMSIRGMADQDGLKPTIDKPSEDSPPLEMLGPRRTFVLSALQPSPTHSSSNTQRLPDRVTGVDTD

[2] = target: T2, recombinant HC1 (rHC1), wild type; heavy chain 1 of inter-α-inhibitor (human) (UniProt P19827); experiment: SPR
T2 sequence: T1 sequence with A264D

Substance	binding [1]	binding [2]
TGFβ2-LAP (small latent complex of TGFβ2)	binds	–
TGFβ3-LAP (small latent complex of TGFβ3)	binds	–
LTBP1 C-terminal region (CT) (domain or fragment)	–	no binding (tested: 10nM)
LTBP1 EGF region (domain or fragment)	–	no binding (tested: 10nM)
TGFβ1-LAP (small latent complex of TGFβ1)	binds	–
